No constants are given. Whether binding was seen depends on the method and setting. In cells and extracts the contact can be indirect. Here binding means that the protein was enriched with, or labelled near, the bait; the list need not be complete.
Target: R-catcher (Twin StrepII-His6-ZZ_(122-175)^N132D) (human) (UniProt Q13501)
Experiment: affinity purification with mass spectrometry; large-scale R-catcher pull-down: 10 mg lysate of HeLa cells (MG132 plus thapsigargin), pre-cleared on D129A mutant R-catcher beads, on R-catcher-sepharose, 3 h, 4 °C, without or with 25 mM RA or AR dipeptide; elution with biotin; LC-MS/MS; only the target purified

- binding: binds
B1: Dermcidin, endogenous (hit of the R-catcher LC-MS/MS) (protein, UniProt P81605 20-110)
chain: YDPEAASAPGSGNPCHEASAAQKENAGEDPGLARQAPKPRKQRSSLLEKGLDGAKKAVGGLGKLGKDAVEDLESVGKGAVHDVKDVLDSVL

Source: article PMC8038991, “R-catcher, a potent molecular tool to unveil the arginylome” (Cellular and Molecular Life Sciences: CMLS, 2021)
